Assay results from US7638055B2, “Sludge quality” (Rhodia Operations, priority 2004, dated 2009).
Like-named read-outs stand apart in the source and are kept apart here.

Conditions: sample 48 days after start up, settling period of one hour

Substance: tetrakis(hydroxymethyl)phosphonium sulphate [Compound X]
- Observations (settling of sludge) (2 mg/l/day): Clear water with settled sludge at bottom
- Observations (settling of sludge) (4 mg/l/day): Clear water with settled sludge at bottom
